Source: ChEMBL document CHEMBL3988442, “University of Dundee, Small-Polar-MMV Screening Library” (2021).

Chains of the proteins cited; added tags and fusions are not shown.
UniProt E9BF75, entry or part of it: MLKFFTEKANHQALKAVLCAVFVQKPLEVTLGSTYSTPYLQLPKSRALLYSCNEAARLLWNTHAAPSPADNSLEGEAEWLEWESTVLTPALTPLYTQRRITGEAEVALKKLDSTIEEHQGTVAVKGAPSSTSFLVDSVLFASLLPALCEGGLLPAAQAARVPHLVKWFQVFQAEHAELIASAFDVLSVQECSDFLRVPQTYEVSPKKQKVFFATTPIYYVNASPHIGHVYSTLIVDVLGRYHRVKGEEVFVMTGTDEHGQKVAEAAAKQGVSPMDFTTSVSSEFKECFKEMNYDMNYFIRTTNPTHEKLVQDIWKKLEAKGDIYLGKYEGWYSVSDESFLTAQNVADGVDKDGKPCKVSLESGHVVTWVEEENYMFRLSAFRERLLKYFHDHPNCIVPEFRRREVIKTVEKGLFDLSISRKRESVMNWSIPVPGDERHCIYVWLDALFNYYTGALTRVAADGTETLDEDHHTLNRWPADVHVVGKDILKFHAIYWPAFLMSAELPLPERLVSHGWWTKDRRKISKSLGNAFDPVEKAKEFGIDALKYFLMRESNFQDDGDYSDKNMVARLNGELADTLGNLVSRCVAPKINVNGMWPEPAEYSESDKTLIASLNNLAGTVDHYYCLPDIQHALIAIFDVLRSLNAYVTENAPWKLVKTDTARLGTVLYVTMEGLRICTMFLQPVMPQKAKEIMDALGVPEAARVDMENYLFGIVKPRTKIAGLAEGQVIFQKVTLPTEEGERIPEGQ

Results are percentages, as filed. The controls that fix the scale are not given in the record; negative values are as filed. This is an unselected part of the compounds tested.

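Primary screen of methionyl-tRNA synthetase; the read-out is not stated. Target: Methionyl-tRNA synthetase (putative), Leishmania donovani (UniProt E9BF75). The test concentration is not given. The values are filed as inhibition. Of about 68,000 compounds tested this way, about 24 (0.035%) reached 50% or more in at least one test.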

Cc1nc(O)cc(C2CCCN(Cc3c(Cl)cncc3Cl)C2)n1 (centres unmarked) gave 14.01%. For CCC(C(=O)NCc1noc(Cc2cccs2)n1)n1cccn1 (centres unmarked) the result was 3.015%. Cn1cc(C#N)cc1C(=O)Nc1ccc(CN2CCOCC2)cn1 gave 11.68%. Result for COc1ccccc1CNC(=O)CN(C)C(C)c1ccncn1 (centres unmarked) was 13.31%.

For Cc1ccc(NC2CCN(C(=O)c3ccc(Cl)cc3F)CC2)nn1 the result was 15.19%. COCCOc1ccc(C(=O)N[C@@H]2CNCCC[C@H]2O)cc1 gave 13.19%. With O=C(CN1CCc2cncnc2C1)N1CCc2sccc2C1 the screen gave 23.75%. Cc1nn(C)c(N(C)C)c1CNC1CCc2c(F)cccc21 (centres unmarked) read 9.184%.

For CC(C)COC(=O)N1CC(=O)N(CCCc2ccccc2)CC(O)C1 (centres unmarked) the result was 9.041%. Result for CCc1ncc2c(n1)CN(c1nnc(C)c(C)c1C#N)CC2 was 11.58%. CCc1n[nH]c(C2CN(C(=O)c3cnns3)CCO2)n1 (centres unmarked) gave 1.408%. Cc1nc(S(=O)(=O)N2CCSCC2)cn1C gave 12.89%.

Result for Cc1ccc(N2CCC3(CCN(Cc4ccccn4)CC3)CC2)nn1 was 10.95%. Cc1c[nH]c(CN2CCOC(c3ccc(Cl)c(Cl)c3)C2)c(C)c1=O (centres unmarked) gave 5.852%. O=C(O)c1cc2c(nc1N1CCOCC1)CCN(C1CCOC1)CC2 (centres unmarked) gave 10.64%. Cc1cccc(CN2CCC3(CCCN(C(=O)N4CCCC4)C3)C2=O)n1 (centres unmarked) gave -1.418%.

With CN(CC(=O)NCCc1cc2ccccc2o1)S(C)(=O)=O the screen gave 4.11%. For CCC(C)(NCC(=O)Nc1ccccc1)c1nc(C)cs1 (centres unmarked) the result was 13.01%. For COCCN1CCCC2(CCC(=O)N2Cc2cccnc2)C1 (centres unmarked) the result was 12.89%. Result for O=C(CCCSc1ccc(NC(=O)C2CC2)nn1)NCC1CCCO1 (centres unmarked) was 9.48%.

Result for CCc1ccc(NC(=O)C(C)N2CCN(Cc3ncc[nH]3)CC2)cc1 (centres unmarked) was 16.06%. Cc1noc(CN(C)C(=O)c2n[nH]c(N)c2-c2ccccc2)n1 gave 17.12%. With Cc1cc(C)n(-c2ccc(C(=O)NCC(c3cccs3)N(C)C)cc2)n1 (centres unmarked) the screen gave 12.24%. CC(C)Cc1nc(C[S+]([O-])CC(=O)NCc2ccccc2)no1 (centres unmarked) read 4.749%.

COc1cccc(CSCC2=Nc3ccccc3S(=O)(=O)N2)c1 gave 4.57%. For NCC1CCCCN1Cc1cc(O)c2cccc(F)c2n1 (centres unmarked) the result was 5.389%. With Cc1nn(C)c(Cl)c1C1CCCN1C(=O)c1ccc(N(C)C)nn1 (centres unmarked) the screen gave 1.079%. Cc1nc(O)cc(C2CCN(C(=O)C(C)Cn3nc(C)nc3C)CC2)n1 (centres unmarked) read 10.78%.

CC(C)CN1C(=O)CO[C@@H]2CN(C(=O)NC(C)C)C[C@H]21 gave 10.73%. CC(NC(=O)NCCNc1cccc(F)c1C#N)c1cccs1 (centres unmarked) read 1.504%. COc1ccc(OC)c(CNCc2ccnc(N3CCOCC3)c2)c1 read 22.78%. Cc1ccnc(C2CCN(C(=O)c3cnn(C)c3)CC2)n1 read 14.78%.

CC(C)Oc1ccccc1C1CC(=O)Nc2c1cnn2C (centres unmarked) gave 11.27%.

For reference, 4 entries once more:

| structure | inhibition |
|---|---|
| `CC(C)Cc1nc(C[S+]([O-])CC(=O)NCc2ccccc2)no1` (centres unmarked) | 4.749 |
| `Cc1noc(CN(C)C(=O)c2n[nH]c(N)c2-c2ccccc2)n1` | 17.12 |
| `CCC(C)(NCC(=O)Nc1ccccc1)c1nc(C)cs1` (centres unmarked) | 13.01 |
| `Cc1ccnc(C2CCN(C(=O)c3cnn(C)c3)CC2)n1` | 14.78 |